This experiment can be described thus: qHTS Assay to Find Inhibitors of Chronic Active B-Cell Receptor Signaling. The settings on record: ABC-DLBCL IkBa-CBG/CBR reporter, luminescence ratio (green luciferase fused to IkBa over red control in TMD8 lymphoma cells), 4 h. The gist of the method:
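TMD8 ABC-DLBCL cells carrying doxycycline-inducible green luciferase fused to IkappaBalpha plus unfused red luciferase were exposed to compounds (up to 46 uM) for 4 hrs at 37C. Activity came from the overlap-corrected green/red luminescence ratio.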

Where [1] appears, read: measured here: CBR red luminescence, cell number.
The mark [2] stands for this setting: measured here: IkBa-CBG green luminescence.

Data on 63 compounds can be found in PubChem BioAssay AID493014 (National Center for Advancing Translational Sciences (NCATS), 2011).

Usually AC50 stands for the concentration at which the activity in the assay is half-maximal.

“And” between values parts separate entries of the source, which are not always exact repeats. Equal entries are not always repeated. The list shows a part of the results. These are further read-outs of the screen, such as a control signal, another cell line or another target. No call is given for them. Most of these compounds were active or inconclusive in the main read-out, so they are no random draw. Words in brackets tell the shape of the fitted curve; partial curves, single points and poor fits give uncertain potencies.

As to `O=c1[nH]c(C2CCN(S(=O)(=O)c3ccccc3)CC2)nc2c1nnn2Cc1ccc2c(c1)OCCO2`, the AC50 under setting [1] is 10 µM [falling, partial curve, poor fit].

Regarding `COc1ccc([C@H]2[C@H](C(=O)C(C)(C)C)N3N=Cc4ccccc4C3[C@]23N=C(c2ccccc2)OC3=O)cc1` (stereo not given in full), the AC50 under setting [1] is 3.98 µM [rising, partial curve].

With `CCOc1ccc(CCNC(=O)C2CCN(S(=O)(=O)N3CCCCC3)CC2)cc1OCC`, the AC50 under setting [2] was 5.8 µM [falling, partial curve, poor fit].

Regarding `COc1ccccc1C1CC(c2ccc(Br)cc2)=NN1C(=O)c1cccnc1` (stereo not given), the AC50 under setting [1] is 3.26 µM [falling, full curve, poor fit].

As for `COc1cccc(Cn2cccc(NC(=O)Nc3ccc(C#N)cc3)c2=O)c1`, the concentration at half-maximal activity (AC50) under setting [1] is 11.2 µM [rising, partial curve, poor fit].

For the compound `C=CCN(CC=C)CCOc1ccc2ccccc2c1`, the AC50 under setting [1] is 35.5 µM [rising, single point].

Regarding `O=c1c2ccc(Cl)cc2[nH]c(=S)n1CCCN1CCOCC1`, under setting [1], the AC50 is 3.55 µM [falling, partial curve, poor fit].

Consider `COc1ccc(/C=N/NC(=O)c2ccccc2O)cc1Cn1nnc2ccccc21`, for which, under setting [1], the AC50 was 7.94 µM [falling, partial curve].

With `COc1ccc(-c2oc3ccc(-c4cc(OC)c(OC)c(OC)c4)cc3c2C(=O)c2ccc(OC)nc2)cc1`, the half-maximal activity concentration (AC50) runs as follows: under setting [1], 3.55 µM [rising, partial curve]; under setting [2], 6.31 µM [falling, partial curve, poor fit].

Consider `COc1ccccc1NC(=O)COC(=O)c1cc(C)nc2ccccc12`, for which the AC50 under setting [1] was 2.06 µM [falling, full curve].

In the case of `C=C(c1cccc2ccccc12)P(=O)(O)O`, the concentration at half-maximal activity (AC50) under setting [1] was 1.16 µM [falling, full curve].

Regarding `CC(C)(C)c1ccc(/C=C2\CCn3c2nc2cc(C(=O)O)ccc2c3=O)cc1`, under setting [1], the concentration at half-maximal activity (AC50) is 10 µM [rising, partial curve, poor fit].

With `CC(=O)c1ccc(NC(=O)CCC(=O)OCC(=O)c2cccc([N+](=O)[O-])c2)cc1`, the AC50 under setting [1] is 12.6 µM [falling, partial curve].

With `O=C(COc1ccccc1Cl)Nc1cc(Cl)ccc1O`, the AC50 under setting [1] was 8.91 µM [falling, partial curve, poor fit].

Regarding `COc1cc(OC)c(NC(=O)c2ccccc2F)cc1Cl`, under setting [1], the AC50 was 5.01 µM [rising, partial curve, poor fit].

Take `CCOc1ccccc1N1CC(C(=O)Nc2cccc(S(=O)(=O)N3CCCCC3)c2)CC1=O` (stereo not given): the AC50 under setting [1] was 1.58 µM [rising, partial curve, poor fit].

For `O=C(Cn1nnc(-c2ccccc2)n1)OCc1csc(-c2ccccc2)n1`, under setting [1], the AC50 is 2.51 µM [rising, full curve, poor fit].

Turning to `COc1cc(S(=O)(=O)N2CCN(Cc3ccccc3)CC2)ccc1Br`, the AC50 under setting [1] was 14.6 µM [falling, partial curve, poor fit].

As to `COc1ccc(C(=O)NNC(=S)NC(=O)C(C)(C)C)cc1`, the AC50 runs as follows: under setting [1], 31.6 µM [rising, single point]; under setting [2], 35.5 µM [falling, single point].

As to `CCCCc1nc(N2CCN(C(=O)c3ccco3)CC2)c(C#N)c2c1CCCC2`, the AC50 under setting [1] was 15.8 µM [falling, single point].

On to `CCOC(=O)C1CCN(C/C=C/c2ccccc2OC)CC1`, for which, under setting [1], the AC50 is 2.31 µM [falling, partial curve].

In the case of `Cn1c(-c2ccccc2)c(/C=N/NC(=O)c2ccc(O)cc2)c2ccccc21`, the AC50 under setting [1] was 14.1 µM [falling, partial curve, poor fit].

On to `Cc1ccccc1C(=O)Nc1ccc2c(c1)OCO2`, for which the AC50 under setting [1] is 12.6 µM [falling, partial curve].

For `COc1ccc(CNC(=O)/C(C)=C\C(=O)O)cc1`, under setting [1], the AC50 was 6.31 µM [falling, full curve, poor fit].

In the case of `O=C(CSc1ccccc1F)NCCCN1CCCC1=O`, the AC50 under setting [1] is 29.1 µM [rising, single point].

For `O=C(CNC(=O)c1ccccc1F)c1ccc(Br)cc1`, the AC50 under setting [1] is 11.2 µM [falling, partial curve, poor fit].

With `COc1ccc(Nc2nc(OC)nc(N3CCN(c4ccc(OC)cc4)CC3)n2)cc1`, under setting [1], the half-maximal activity concentration (AC50) was 5.8 µM [rising, full curve, poor fit].

With `Cc1occc1-c1nnc(SCC(N)=O)n1Cc1ccccc1`, the AC50 under setting [1] was 16.4 µM [falling, single point].

Take `Cc1oc(-c2cc(F)ccc2F)nc1CN1CCN(c2ncnc3ccccc23)CC1`: under setting [1], the AC50 is 12.6 µM [falling, single point].

Regarding `COc1ccccc1NS(=O)(=O)c1ccc(C)c(C(=O)N2CCN(c3ccc(O)cc3)CC2)c1`, under setting [1], the AC50 was 16.4 µM [falling, partial curve, poor fit].

Take `c1ccc(-n2nnnc2NCCc2c[nH]c3ccccc23)cc1`: the AC50 under setting [1] is 3.55 µM [rising, single point].

As for `O=C(Cc1c(O)c2ccccc2[nH]c1=O)NCc1ccc(F)cc1`, the concentration at half-maximal activity (AC50) under setting [1] is 29.1 µM [falling, partial curve, poor fit].

Consider `O=C(N/N=C/c1ccc([N+](=O)[O-])o1)c1ccc2c(c1)OCO2`, for which the AC50 under setting [1] was 4.47 µM [falling, partial curve].

On to `S=c1nc[nH]c2nc[nH]c12`, for which the concentration at half-maximal activity (AC50) under setting [1] is 3.16 µM [rising, partial curve, poor fit] and 1.46 µM [rising, partial curve].

Take `Cc1nc(N2CCCCC2)c2c(C)c(C(=O)Nc3ccccc3C(F)(F)F)sc2n1`: the AC50 under setting [1] is 5.01 µM [rising, partial curve, poor fit].

Take `CN1CCSc2ccc(C(=O)Nc3cccc(F)c3)cc21`: the AC50 under setting [1] is 17.8 µM [falling, single point].

In the case of `O=C1OCCC1Sc1nnc(-c2ccccc2)o1` (stereo not given), the AC50 under setting [1] was 10 µM [falling, partial curve].

Consider `Cc1ccc(-c2nnc(SCc3nc4ccccc4[nH]3)n2Cc2ccco2)cc1`, for which, under setting [1], the AC50 is 17.8 µM [falling, partial curve, poor fit].

As to `COc1cc(C(=O)N/N=C(\C)Cn2nc([N+](=O)[O-])cc2C)ccc1O`, under setting [1], the AC50 was 13 µM [falling, partial curve].

`Cc1ccc(C(=O)COC(=O)c2ccccc2NC(=O)c2ccccc2)cc1[N+](=O)[O-]`: the AC50 under setting [1] was 3.66 µM [falling, partial curve].

Take `CC1=NN(C(N)=S)C(=O)C1N=Nc1ccc(Cl)cc1Cl` (stereo not given): the AC50 under setting [1] is 17.8 µM [rising, partial curve, poor fit].

Consider `O=C(Nc1ccc2c(c1)OCCO2)c1ccc(S(=O)(=O)N2CCCCC2)cc1`, for which, under setting [1], the AC50 is 12.6 µM [falling, partial curve, poor fit].

On to `CC/C(O)=C1\C(=O)CC(C)(C)CC1=Nc1ccccc1C`, for which the concentration at half-maximal activity (AC50) under setting [1] was 1.3 µM [falling, partial curve, poor fit].

Take `Cc1cccc(/C=N/NC(=O)c2cc(Br)ccc2OCc2ccccc2)n1`: under setting [1], the AC50 was 35.5 µM [falling, single point].

As for `COc1cccc2sc(N3CCN(C(=O)c4ccco4)CC3)nc12`, under setting [1], the half-maximal activity concentration (AC50) was 16.4 µM [falling, single point].

Turning to `CCOC(=O)N/N=C\c1ccc(-c2cc(Cl)ccc2Cl)o1`, the AC50 under setting [1] is 35.5 µM [falling, single point].

As to `COC(=O)c1sc(NC(=O)CC(C)C)c(C(=O)OC)c1C`, the AC50 under setting [1] was 32.6 µM [falling, single point].

For `COc1ccccc1NC(=O)N1CCc2[nH]c3ccc(Cl)cc3c2C1`, the AC50 under setting [1] was 1 µM [falling, full curve, poor fit].

For `CC(C)(C)CC(C)(C)NCC(O)COCCOc1ccc(Br)cc1` (stereo not given), under setting [1], the AC50 was 32.6 µM [falling, single point].

For `NS(=O)(=O)c1ccc(CCNC(=O)NC2CCCCC2)cc1`, under setting [1], the AC50 is 10 µM [rising, partial curve, poor fit].

`COC(=O)c1sc2nc(C)nc(SCC(=O)Nc3sccc3C(N)=O)c2c1C`: the AC50 under setting [1] is 2.91 µM [falling, full curve].

Regarding `O=S(=O)(c1ccc(-c2cn3ccccc3n2)cc1)N1CCOCC1`, under setting [1], the AC50 was 29.1 µM [rising, single point].

With `CCc1nc(Nc2ccc3nccnc3c2)c2oc3ccccc3c2n1`, the AC50 under setting [1] is 0.251 µM [falling, full curve, poor fit].

Take `CC(C)OCCCNC(=O)CN1C(=O)/C(=C/c2ccccc2F)Oc2ccccc21`: under setting [1], the AC50 was 22.4 µM [rising, single point].

With `COc1ccc(C2CC(=O)Nc3cc(OC)c(OC)cc32)cc1Br` (stereo not given), under setting [2], the AC50 is 14.1 µM [falling, partial curve].

For `CCCC(=O)Nc1nc2ccc(S(N)(=O)=O)cc2s1`, the AC50 under setting [1] was 25.9 µM [rising, single point].

Consider `CCOC(=O)c1ccc(NC(=O)C2CCN(S(=O)(=O)CC)CC2)cc1`, for which, under setting [1], the AC50 is 9.2 µM [rising, partial curve, poor fit].

Turning to `COc1ccc2o/c(=N/NC(=O)c3cccs3)c(C(N)=O)cc2c1`, the AC50 under setting [1] was 11.2 µM [falling, single point].

As for `CC(C)CN(C(=O)CSc1nc(-c2ccccc2)cn1N)c1c(N)n(Cc2ccccc2)c(=O)[nH]c1=O`, the AC50 under setting [1] was 23.1 µM [falling, partial curve].

Consider `Cc1ccc(NC(=O)CSc2nc(=O)n(CCCN(C)C)c3c2CCC3)cc1F`, for which the AC50 under setting [1] was 12.6 µM [falling, partial curve].

For `COC(=O)c1ccc(OCC(O)CN2C(=O)c3ccccc3S2(=O)=O)cc1` (stereo not given), the AC50 under setting [1] is 11.2 µM [rising, single point].

Turning to `CC(=O)c1ccccc1NC(=O)COC(=O)/C(=C/c1ccccc1)n1nnnc1C`, under setting [1], the AC50 is 11.2 µM [falling, partial curve].

For `COc1cccc(-c2nn(-c3ccc(F)cc3)cc2C(=O)NCC2CCCO2)c1` (stereo not given), the AC50 under setting [1] was 32.6 µM [rising, single point].
